Where “and” joins values, the source holds several entries; their conditions need not be identical. Identical values can stand only once. Among all 580,000 compounds or so, about 6,100 (1.1%) were called active. Inconclusive results, whose numbers are uncertain, are shown with a selection of clear calls. Calls follow the shape of the dose curve; as a rule, active = well fitted inhibition curve with a large enough effect; inconclusive = small, poorly fitted or top-dose-only effect, or another doubt; inactive = no such curve, though single readings can be large or run the other way. Potencies beside an inconclusive call are fits to weak or partial responses and may not hold up.
What follows are molecules tested against Polyunsaturated fatty acid lipoxygenase ALOX12 (Homo sapiens) (UniProt P18054) (assay: Primary qHTS assay for inhibitors of human arachidonate 12S-lipoxygenase (ALOX12): Round 2). Settings: purified 12hLO, xylenol orange hydroperoxide absorbance; activity change, negative = inhibition: at 108 µM (top of the series) unless noted.
How it was run: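 Purified human 12hLO at 150 nM in 25 mM Hepes, 0.01% Triton X-100, pH 7.0, preincubated 15 min at room temperature with compound. Reaction started with 40 uM arachidonic acid, 30 min at room temperature. Hydroperoxide measured by Fe-xylenol orange, 573/405 nm absorbance ratio.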
% is scaled to controls: 0 for no effect and ±100 for the full control effect; potency is read from the fitted curve at half-maximal effect.

By UniProt entry, the sequences of proteins in these tests, tags left out. Where a name states a change or a piece, a line headed by the entry shows the natural chain unless it says otherwise.
UniProt P18054: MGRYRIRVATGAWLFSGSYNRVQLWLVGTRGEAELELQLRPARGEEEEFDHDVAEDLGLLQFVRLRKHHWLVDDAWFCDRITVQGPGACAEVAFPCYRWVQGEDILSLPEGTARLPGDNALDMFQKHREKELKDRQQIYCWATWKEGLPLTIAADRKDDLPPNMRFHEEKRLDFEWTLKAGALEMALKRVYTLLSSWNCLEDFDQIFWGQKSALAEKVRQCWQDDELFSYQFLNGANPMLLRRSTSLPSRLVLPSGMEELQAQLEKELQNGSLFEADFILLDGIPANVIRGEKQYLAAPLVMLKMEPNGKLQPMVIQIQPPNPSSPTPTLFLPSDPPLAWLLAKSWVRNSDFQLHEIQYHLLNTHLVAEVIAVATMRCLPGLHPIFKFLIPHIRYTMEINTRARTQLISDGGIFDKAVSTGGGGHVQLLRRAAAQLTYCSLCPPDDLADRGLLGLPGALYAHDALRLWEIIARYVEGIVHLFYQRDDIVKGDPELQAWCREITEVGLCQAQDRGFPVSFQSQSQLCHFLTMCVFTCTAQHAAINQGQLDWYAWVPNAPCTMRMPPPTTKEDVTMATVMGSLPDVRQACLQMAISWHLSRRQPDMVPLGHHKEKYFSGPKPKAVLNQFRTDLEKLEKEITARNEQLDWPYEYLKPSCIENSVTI

Compound	activity change, negative = inhibition	Potency
CCCOc1nc2ccccc2nc1N1CCC(C(=O)Nc2cc(F)cc(F)c2)CC1	inactive: -27.3%	–
COc1ccccc1NS(=O)(=O)c1ccc(C)c(NC(=O)NC2CCCCC2)c1	inactive: -14.2%	–
CC1Cc2cc(S(=O)(=O)NCCc3ccccc3)ccc2N1C(=O)C1CC1 (stereo not drawn)	inactive: -12.6%	–
c1ccc(CSc2ccc(-c3ccco3)nn2)cc1	–	inconclusive: 0.251 µM [inhibitor, full curve, poor fit]
O=C(NCCN1CCN(C(=O)c2cc(Cl)cc(Cl)c2)CC1)c1cc(Cl)cc(Cl)c1	inconclusive: -33.3% [inhibitor]	–
CC(C)Oc1ccc(C(=O)N2CCC(CCC(=O)NC3CC3)CC2)cc1	–	inconclusive: 100 µM [inhibitor, single point]
CCOC(=O)N1CCN(C(=O)c2cc(N3C(=O)CCS3(=O)=O)ccc2Cl)CC1	–	inconclusive: 0.224 µM [inhibitor, full curve, poor fit]
CC(C)CCN1CCC[C@]2(N[C@H](c3ccccc3)[C@@H]3C(=O)N(Cc4ccccc4)C(=O)[C@@H]32)C1=O	–	inconclusive: 39.8 µM [inhibitor, partial curve, poor fit]
COC(=O)C(NC(=O)c1ccccc1)c1ccccc1 (stereo not drawn)	–	inconclusive: 7.94 µM [inhibitor, partial curve, poor fit]
COc1ccc(N2CCN(C(c3ccccc3OC)c3nnnn3Cc3ccco3)CC2)cc1 (stereo not drawn)	inconclusive: -70.9% [inhibitor]	–
CCCCCn1c(Sc2ncccn2)nc2c1c(=O)[nH]c(=O)n2C	inactive: 0%	–
CSc1ccc(OC2(C)CCN(Cc3cc4ccccc4o3)C2)cc1 (stereo not drawn)	–	inconclusive: 89.1 µM [inhibitor, partial curve, poor fit]
CCc1cccc(NC(=O)CN2CCCN(Cc3cccc(C)c3)S2(=O)=O)c1	–	inconclusive: 141 µM [inhibitor, partial curve, poor fit]
COc1ccccc1NC(=O)c1nn(C)c(=O)c2ccccc12	inactive: 15.7%	–
CC1=C(C(=O)OCc2ccccc2)C(/C=C/c2ccccc2)N2C(=O)CCSC2=N1 (stereo not drawn)	–	inconclusive: 50.1 µM [inhibitor, partial curve, poor fit]
CCN1CCN(C(=O)c2ccc(-c3nc4ccccc4s3)s2)CC1	inactive: -8.85%	–
COc1ccc(N2CCN(C(=O)c3ccc4nc(N5CCC(C)CC5)sc4c3)CC2)cc1	–	inconclusive: 100 µM [inhibitor, partial curve, poor fit]

Compound	activity change, negative = inhibition	Potency
CCOC(=O)N1CCN(Cc2cc(=O)oc3c(C)c(C)ccc23)CC1	–	inconclusive: 35.5 µM [inhibitor, single point]
O=C(Cc1n[nH]c(=O)c2ccccc12)N(Cc1ccccc1)c1nc2c(s1)CCCC2	–	inconclusive: 31.6 µM [inhibitor, single point]
Cc1cc(CN2CCc3nc(C(C)C)nc(-c4ccc(Cl)cc4)c3CC2)no1	–	inconclusive: 79.4 µM [inhibitor, single point]
COC(=O)COc1ccc2c(C)c(-c3ccccc3)c(=O)oc2c1	inactive: 8.55%	–
CCCNc1c(NC(=O)Cc2cccs2)c(=O)oc2ccccc12	inactive: -10.2%	–
Cc1cc(C(=O)N2CCCN(C)c3ccccc32)nn1C	–	inconclusive: 17.8 µM [inhibitor, full curve]
COc1ccccc1CNC(=O)/C=C/C(=O)O	–	inconclusive: 35.5 µM [inhibitor, partial curve, poor fit]
CC(C)N(Cc1nc(-c2ccc(Cl)cc2)no1)C(=O)CCCN1C(=O)c2ccccc2C1=O	inactive: -22.9%	–
CC(=O)N1CCCc2ccc(NS(=O)(=O)c3ccccc3)cc21	inactive: 2.72%	–
O=C(Nc1cccnc1)Nc1ccccc1Cl	–	inconclusive: 35.5 µM [inhibitor, partial curve, poor fit]
C#CCN[C@@H]1C[C@@H]2c3[nH]c4ccccc4c3C[C@@H](C(=O)OC)N2[C@H](c2ccc(F)cc2)C1	–	inconclusive: 79.4 µM [inhibitor, partial curve]
Cn1c(=O)cc(C(=O)NC2CCCc3c2[nH]c2ccccc32)c2ccccc21 (stereo not drawn)	–	active: 39.8 µM
COc1cccc(/C=C/c2ccc3cccc(O)c3n2)c1OC	–	inconclusive: 31.6 µM [inhibitor, partial curve, poor fit] and inconclusive: 35.5 µM [inhibitor, partial curve, poor fit]
Nc1c(Br)cc(Br)c2c1[nH]c(=O)c1ccccc12	–	inconclusive: 44.7 µM [inhibitor, partial curve, poor fit]
COc1ccc(-c2nn(-c3ccccc3)cc2/C=C2/SC(=S)N(CCCC(=O)O)C2=O)c(C)c1	–	inconclusive: 44.7 µM [inhibitor, partial curve, poor fit]
Cc1ccc(S(=O)(=O)N2CCN(C3CCN(Cc4ccccn4)C3=O)CC2)cc1 (stereo not drawn)	inactive: 67.3%	–
